## Primary screen of a compound library

Amino acid sequences for entries named in this document (tags omitted).
UniProt E9BF75, entry or part of it: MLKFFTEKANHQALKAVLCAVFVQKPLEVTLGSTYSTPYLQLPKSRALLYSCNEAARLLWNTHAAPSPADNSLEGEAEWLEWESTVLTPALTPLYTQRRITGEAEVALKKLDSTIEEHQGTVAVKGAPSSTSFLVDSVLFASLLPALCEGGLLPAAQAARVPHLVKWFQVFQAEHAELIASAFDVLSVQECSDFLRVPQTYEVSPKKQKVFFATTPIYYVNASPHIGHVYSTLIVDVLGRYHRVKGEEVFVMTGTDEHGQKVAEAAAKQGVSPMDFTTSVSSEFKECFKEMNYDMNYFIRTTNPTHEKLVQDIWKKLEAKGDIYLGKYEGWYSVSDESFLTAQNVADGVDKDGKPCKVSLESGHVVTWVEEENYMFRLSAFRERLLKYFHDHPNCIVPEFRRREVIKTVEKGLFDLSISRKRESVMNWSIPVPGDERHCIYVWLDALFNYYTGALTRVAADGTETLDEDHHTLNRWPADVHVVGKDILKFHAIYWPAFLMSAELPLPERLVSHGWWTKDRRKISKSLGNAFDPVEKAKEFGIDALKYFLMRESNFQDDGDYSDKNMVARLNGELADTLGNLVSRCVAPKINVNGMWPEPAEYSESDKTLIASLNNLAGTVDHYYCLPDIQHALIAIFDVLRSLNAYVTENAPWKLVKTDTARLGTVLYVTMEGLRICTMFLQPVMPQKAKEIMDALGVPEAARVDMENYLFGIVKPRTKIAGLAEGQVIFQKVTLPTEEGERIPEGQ

A: 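Assay on Mycobacterium tuberculosis, filed only as a heat shock assay from Cornell; the read-out is not stated. The concentration is filed as 10 mM, unlikely as a test dose, so the dose is not known. Higher reads as stronger inhibition (inferred: compounds with an IC50 in retests scored well above the rest). Of about 69,000 compounds tested this way, about 930 (1.4%) reached 50% or more in at least one test.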
B: 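Primary screen of methionyl-tRNA synthetase; the read-out is not stated. Target: Methionyl-tRNA synthetase (putative), Leishmania donovani (UniProt E9BF75). The test concentration is not given. Values are per cent inhibition. Of about 68,000 compounds tested this way, about 24 (0.035%) reached 50% or more in at least one test.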
C: 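Whole-cell assay for inhibitors of Mycobacterium tuberculosis growth, labelled Cornell in the record; the read-out is not stated. The concentration is filed as 10 mM, unlikely as a test dose, so the dose is not known. Higher means stronger inhibition (inferred from two other growth screens of the library). Size under these conditions: about 53,000 compounds, about 900 of them at 50% or above in at least one test.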

Results are percentages, as filed.
How 0% and 100% were set is not recorded. Most values in the screen are low, and negative values occur.
The compounds are a random part of those screened.
A dash means the value is not listed here; it may have been measured.

compound | A | B | C
O=C(Cc1n[nH]c2ccccc12)N1CCCC1Cn1cccn1 (centres unmarked) | -11.85% | 11.45% | -
CC(C)N(CC1CCCN(Cc2ccon2)C1)C(=O)OC(C)(C)C (centres unmarked) | 7.677% | 4.545% | -
C1CCN(CCOC2CCNC2)CC1 (centres unmarked) | - | 13.09% | -
Cc1ccc2c(c1)C(NC(C)C)CC21CCNCC1.Cl (centres unmarked) | -26.32% | - | 17.35%
Cn1nccc1C(=O)N1C[C@@H]2CC[C@H](Oc3cccc(F)c3)[C@@H]2C1 | - | 19.42% | -
Cn1cc(CN2C[C@@H]3OCCN(c4ncccn4)[C@@H]3C2)cn1 | - | 2.857% | -
CCc1nnc(CNc2ccc(CC(=O)N3CCSCC3)cc2)o1 | -11.84% | 10.65% | -19.73%
COc1ccc(CN(C)C(=O)CN2CC(n3cccn3)C2)cc1F | -0.352% | 13.13% | 16.63%
Cn1ccc(CN2CCCC2c2ccc3c(c2)OCCCO3)cc1=O (centres unmarked) | 37.54% | 6.748% | 18.35%
[H][C@@]12CCN(Cc3cnn(C)c3)[C@]1([H])CC[C@@H](C(=O)NCCOC)O2 | 21.3% | - | 27.65%
CCOc1cccc(CNC(=O)NCC(O)c2cccc(F)c2)c1 (centres unmarked) | 1.514% | 13.73% | 5.632%
O=C(O)C(F)(F)F.O=C(O)C(F)(F)F.O=C(O)C(F)(F)F.[H][C@@]12CCN(Cc3cccnc3)C[C@]1([H])[C@@H](CNc1ncccn1)OC2 | -29.79% | - | 43.57%
CCC(CN1CCCC1)NC(=O)Cc1c(C)[nH]c2c(C)cc(C)cc12 (centres unmarked) | - | 12.9% | -
Cc1ccc(F)c(N2CCCC(NS(=O)(=O)CCCF)C2=O)c1 (centres unmarked) | -26.68% | 19.78% | -5.482%
CN(Cc1ccc2nsnc2c1)CC1(O)CCNC1 (centres unmarked) | -29.62% | 16.54% | -
Cn1ccnc1SCCNC1CCN(c2ncccn2)CC1 | -32.71% | 8.871% | -47.54%
Cc1cnn(-c2ccc(S(=O)(=O)N(C)CC(F)F)cc2F)c1 | -6.845% | 13.92% | -
CCc1cc(OC)c(OC)cc1C(=O)Nc1cccnc1 | -32.68% | 11.17% | -45.79%
COCC(=O)NC[C@H]1C[C@@H]2CCN1C[C@@H]2CN1CCc2ccccc21 | - | 8.271% | -
COC(=O)N1CCCN(C(=O)NC2CCc3ccccc3C2)CC1 (centres unmarked) | 2.268% | 7.125% | 18.76%
CC(=O)c1ccc(NC(=O)C(NC(=O)Nc2ccccc2)C(C)C)cc1 (centres unmarked) | 0.2318% | 14.36% | 4.158%
COc1cccc([C@@H]2CN(C(=O)c3ccc(C)cc3O)C[C@H]2C(=O)O)c1 | -4.772% | 12.27% | 14.08%
CCO[C@@H]1CCN(C(=O)c2ccc[nH]2)[C@@H]1Cc1cnn(C)c1 | 9.968% | 14.29% | -
CS(=O)(=O)c1ccc(CNC(=O)Nc2cn[nH]c2)cc1 | -8.499% | 20.67% | -
Cc1csc(C2CCCN(C(=O)c3cc(Cl)c[nH]3)C2)n1 (centres unmarked) | 35.12% | 23.53% | 33.24%
Cn1ccnc(Sc2ccccc2)c1=O | 10.95% | 13.17% | -
O=S(=O)(Nc1cnn(C2CCOCC2)c1)c1ccc2c(c1)CCO2 | 23.04% | 13.73% | 15.53%
Cc1ccoc1-c1nnc(CN2CCOC(Cn3cccn3)C2)o1 (centres unmarked) | -17.14% | 18.87% | -
CN(Cc1cccs1)C(=O)CN1CCOC(Cn2cncn2)C1 (centres unmarked) | -30.43% | 13.58% | -17.8%
CNC(=O)c1csc(-c2ccoc2)n1 | -7.185% | 17.87% | -26.5%
CCn1ccc(-c2nnc(SCC(=O)Nc3ccc(C)cc3)n2CC)n1 | 18.59% | 17.89% | 26.1%
CC(C)(C)CCCC(=O)Nc1ccnn1C1CCS(=O)(=O)C1 (centres unmarked) | -0.517% | 23.39% | -
CC(C)CN(C)Cc1nc2c(cnn2C)c(=O)[nH]1 | -8.018% | 11.72% | -
O=S(=O)(N1CCCCC1)N1CCC(Oc2cnccn2)CC1 | -5.18% | 21.88% | 20.22%
O=C(c1c2c(NCC3CC3)ncnc2n2ccccc12)N1CCCC1 | 11.87% | 8.759% | 11.3%
O=C(NCCNc1ncccn1)C1CC(=O)N(Cc2ccccc2)C1 (centres unmarked) | 7.482% | 15.64% | -
CCOCC1CN(S(=O)(=O)N(C)C)Cc2cnn(CC3CC3)c21.O=C(O)C(F)(F)F (centres unmarked) | -9.228% | - | 3.416%
Cc1cccc(Nc2cc(C)nc(C3CCN(C(C)C)C3)n2)n1 (centres unmarked) | - | 5.901% | -
CC(C)C[C@H](NC(=O)Nc1ccc(F)c(Cl)c1)C(=O)O | 4.101% | 3.333% | -18.4%
Cc1csc(C(Cc2cccs2)NCc2cc3c(cc2C)OCO3)n1 (centres unmarked) | -7.271% | -0.3106% | -38.04%
O=C(Cc1ccc2c(c1)OCO2)N1CCCN(c2ccccc2)CC1 | -16.82% | 18.5% | 29.58%
COCCN1CCOCC12CCN(Cc1ccn(C)n1)CC2 | - | 2.439% | -
CN1CCC(Cc2cc(Nc3ccccn3)ncn2)CC1 | -19.05% | 1.562% | -35.07%
Cc1cccc(N2CC3(CCN(Cc4nccn4C)C3)CC2=O)c1 (centres unmarked) | - | 12.09% | -
CCOc1ccccc1-c1cc2c(cc1C(N)=O)OCO2 | -3.619% | 8.078% | 3.38%
Cc1ncsc1C(=O)NCCn1nc(C2CCNC2)c2cccnc21.Cl (centres unmarked) | -3.491% | - | -
O=C(COCCOc1ccccc1)NC1CCN(C(=O)C2CC2)CC1 | 17.55% | 10.76% | 1.971%

The last 5 entries again:

* CN1CCC(Cc2cc(Nc3ccccn3)ncn2)CC1 | A: -19.05%; B: 1.562%; C: -35.07%
* Cc1cccc(N2CC3(CCN(Cc4nccn4C)C3)CC2=O)c1 (centres unmarked) | B: 12.09%
* CCOc1ccccc1-c1cc2c(cc1C(N)=O)OCO2 | A: -3.619%; B: 8.078%; C: 3.38%
* Cc1ncsc1C(=O)NCCn1nc(C2CCNC2)c2cccnc21.Cl (centres unmarked) | A: -3.491%
* O=C(COCCOc1ccccc1)NC1CCN(C(=O)C2CC2)CC1 | A: 17.55%; B: 10.76%; C: 1.971%

From ChEMBL document CHEMBL3988442, “University of Dundee, Small-Polar-MMV Screening Library” (2021).